# Test results from the supplement of paper PMC10338343.
# ± gives the standard deviation. The list shows a part of the results, in another mix than the full data. Many of these values have a large error.
# Test system: MILI (PIWIL2) piRISC loaded with Kctd7 piRNA (26 nt)
# Assay: pre-steady-state target cleavage rate (min^-1); MIWI and MILI are mouse PIWI proteins and EfPiwi is from a freshwater sponge; tags in brackets are library labels; higher = faster piRNA-guided slicing of the target
# Conditions: guide: Kctd7 piRNA 5'p-UGUUAAUCUCUCAGAGAAGGUGACAG; auxiliary factor: 500 nM mouse GTSF1
# In short: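 With or without 500 nM GTSF1 partner protein, 1 nM active affinity-purified piRISC carrying one synthetic guide was mixed with 0.1 nM transcribed, DNA-blocked target RNA library in HEPES–potassium acetate buffer at 33 °C for 0–8 or 0–960 min. Uncleaved targets were sequenced and normalised to depth and to weakly complementary targets, three trials were pooled, and k3 was capped at 0.0001 min^-1. The pre-steady-state cleavage rate came from a burst-and-steady-state fit.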
row,Sequence,pre-steady-state target cleavage rate
1,UAGUGUGUCACCUUCUCUGAGAGAAUUAACA,0.277 ± 0.048
2,UAGUGAGUCACCUUCUCUGACUCAUUAACA,0.000778 ± 0.016
3,UAGUGACAGUGGAAGAGUCAGAGAUUAUCA,0.000267 ± 0.025
4,UAGUGACAGACCUUCUCUGAAGAUUAACA,0.000839 ± 0.0096
5,UAGUGACUCAUCCUUCUCUGAGAGAUUAACA,0.0582 ± 0.0061
6,UAGUGAGUCACCUUCUUUGAGAGAUUAACA,0.334 ± 0.029
7,UAGUGACAGUGGUUCUCUGAGAAGAUUAACA,0.00181 ± 0.0048
8,UAGUGACAGUGGAAGACUGGGAGAUUAACA,0.000275 ± 0.0092
9,UAGUGACAGUGGAAGUCUGGGAGAUUAACA,0.000817 ± 0.0031
10,UAGUGACAGUGCUUCUCUGAGAGAAUAUCA,0.00023 ± 0.011
11,UAGUGACAGUGGUUCUCUGAGAGAUUUAACA,0.000253 ± 0.01
12,UAGUGACAGUGGAUUCUGAGAGAUUAACA,0.00128 ± 0.0041
13,UAGUGACAGUGGAACUCUGAGAGAUUUAACA,0.000233 ± 0.023
14,UAGUGACAGUGGAACUCUGAGAGCAUUAACA,0.000388 ± 0.014
15,UAGUGAGUCACCUUCUCUGAGAUAUUAACA,0.115 ± 0.017
16,UAGUGACAGUGGAUGUCUGUGAGAUUAACA,0.000192 ± 0.013
17,UAGUGACAGUGCUUCUCUCAGUGAUUAACA,0.00178 ± 0.0033
18,UAGUGACACACGUUCUCUGAGUGAUUAACA,0.00155 ± 0.0053
19,UAGUGACUCACCUUGACUGAGAGAUUAUGA,0.000524 ± 0.022
20,UAGUGACAGUCCUUCACUGAGAGUUUAACA,0.00149 ± 0.0064
21,UAGUGAGUCAGGUUCUCUGAGAGAUUUUGA,0.00194 ± 0.0052
22,UAGUCUGUCACCUUCUUCUGAGAGAUUAACA,0.0864 ± 0.021
23,UAGUGACACACCUUCAGAGAGAGAUUAACA,0.00385 ± 0.0052
24,UAGUGACAGUGGAUCACUGAGUGAUUAACA,0.000454 ± 0.0097

row,Sequence,pre-steady-state target cleavage rate
1,UAGUGAGUCUGCUUCUCUGAGAGAUUUUGA,0.00063 ± 0.0077
2,UAGUGACUCACCUUCUCUGAGAAUUAACA,0.0014 ± 0.0077
3,UAGUGACAGUGCUUCUCAGAGUGAUUAACA,0.00286 ± 0.0029
4,UAGUGACAGUGGUUGUCUGAGAGAUAAACA,0.000152 ± 0.037
5,UAGUCUGUCAGCUUCUCUGACAGAUUAACA,0.00105 ± 0.01
6,UAGUGACAGUGGUUCUCUGAGAGUAUUAACA,0.000508 ± 0.0056
7,UAGUGACAGUGGAUGUCUGAGUGAUUAACA,0.000183 ± 0.013
8,UAGUGACUCACCUUCUCUGAGACUAUAACA,0.00164 ± 0.0074
9,UAGUGACUCACCUUCUCUGAGAGAUGUAACA,0.172 ± 0.028
10,UAGUGACAGUCCUUCUCUGAGAGAAUAACA,0.00233 ± 0.0043
11,UAGUGACAGUGCUAGACUGAGAGAUUAACA,0.000382 ± 0.015
12,UAGUGACAGACCUUCUCUGAGAGAUAAAGA,0.000578 ± 0.02
13,UAGUCUGUCACCAAGUCUGAGAGAUUAAGA,0.00249 ± 0.0048
14,UAGUGUGUCACCUUCUCAGAGACAUUAACA,0.117 ± 0.025
15,UAGUGACAGUGGUUCUCUCAGUGAUUAACA,0.000478 ± 0.0089
16,UAGUGACAGUCCUUCUCAGAGAGAUUAAGA,0.00208 ± 0.0052
17,UAGUGACUCAGGAUCUCUGAGAGAUUAACA,0.00237 ± 0.0028
18,UAGUGAGUCACCUUCUCUGACAGAAUAACA,0.00164 ± 0.0077
19,UAGUGACAGUCCUUCUCUGAGAGAUUUUCA,0.00152 ± 0.006
20,UAGUGACAGUCCUUGAGUGAGAGAUUAACA,0.00142 ± 0.0051
21,UAGUGAGUCACCUUCUCUCACAGAUUAACA,0.00278 ± 0.0052
22,UAGUGACAGUGGAACUCUGAGUGAUUAUCA,0.000692 ± 0.024
23,UAGUGACAGACGAACUCUGAGAGAUUAACA,0.000424 ± 0.01
24,UAGUGUGUCACCUACUCUGAGAGAUUUACA,0.25 ± 0.052

# Three successive records already listed, for reference:
row,Sequence,pre-steady-state target cleavage rate
14,UAGUGUGUCACCUUCUCAGAGACAUUAACA,0.117 ± 0.025
15,UAGUGACAGUGGUUCUCUCAGUGAUUAACA,0.000478 ± 0.0089
16,UAGUGACAGUCCUUCUCAGAGAGAUUAAGA,0.00208 ± 0.0052

# (listing goes on)

row,Sequence,pre-steady-state target cleavage rate
1,UAGUGACUCACCUUCUCUGAGACUUUAUGA,0.00028 ± 0.021
2,UAGUGACAGUGGAAGUCUGAGCAGAUUAACA,0.000208 ± 0.02
3,UAGUGACUCACCUUCUCUGAGAGAUUAUGA,0.0729 ± 0.012
4,UAGUGUGUCACCUUCUGUGAGAGUUUAACA,0.0964 ± 0.027
5,UAGUGACAGUGCUUCUCUGACUCUAAUUGA [g11:g19:cont:t1A],0.000143 ± 0.055
6,UAGUGAGUCAGCUUCUCUGAGAGAUUUUGA,0.00248 ± 0.0043
7,UAGUGACAGUCCUUCUCUCAGAGAUAAACA,0.0029 ± 0.0041
8,UAGUGACUCACCUUCUCUGAGAGAUAUAGA,0.00403 ± 0.0045
9,UAGUGACAGUGGAAGUCUGAGAGAUUAAUCA,0.000188 ± 0.017
10,UAGUGACAGUGGUUGUCUGAGAGAUUUACA,0.000967 ± 0.0066
11,UAGUGACACACCUUCUCUGAGUCUUUAACA,0.000132 ± 0.02
12,UAGUGACAGUGGAAGUGUGAGACAUUAACA,0.000177 ± 0.029
13,UAGUGACACACGAUCUCUGAGAGAUUAUGA,0.00189 ± 0.005
14,UAGUGACAGUGGAAGUCUGAGAGAUUAACCA,0.00186 ± 0.0024
15,UAGUGACAGACCUUCUCUGAGAGUUAACA,0.00111 ± 0.01
16,UAGUGAGUCACCUUGUCUGAGUGAUUAACA,0.00179 ± 0.0055
17,UAGUGACUCUCCUUCUCUGAGUGAUUAACA,0.000488 ± 0.011
18,UAGUGACAGUGGAAGAGAGAGAGAUUACCA,0.000168 ± 0.034
19,UAGUGUCUCACCUUCUCUGAGAGAUUUACA,0.196 ± 0.043
20,UAGUGAGUCACCUUCUCUGAGAGAUUUUCA,0.145 ± 0.044
21,UAGUCUGUCACCUUCUCUGAGAGAUGUAACA,0.211 ± 0.03
22,UAGUGACAGUGGAAGAGACUCUCAUUAACC [g2:g7:cont:t1C],0.000114 ± 0.019
23,UAGUGACAGUGGAACUCUGAGAGUAUAACA,0.000132 ± 0.053
24,UAGUGACAGUGGUUCUCUGAGUGAUUAACA,0.000311 ± 0.013
